One substance from PMC10128056 can be followed below.

These are yes or no findings as the source states them, for the method shown.

The target in this test is T1, L. monocytogenes GlmS (L. monocytogenes) (UniProt Q8Y915).
T1 sequence: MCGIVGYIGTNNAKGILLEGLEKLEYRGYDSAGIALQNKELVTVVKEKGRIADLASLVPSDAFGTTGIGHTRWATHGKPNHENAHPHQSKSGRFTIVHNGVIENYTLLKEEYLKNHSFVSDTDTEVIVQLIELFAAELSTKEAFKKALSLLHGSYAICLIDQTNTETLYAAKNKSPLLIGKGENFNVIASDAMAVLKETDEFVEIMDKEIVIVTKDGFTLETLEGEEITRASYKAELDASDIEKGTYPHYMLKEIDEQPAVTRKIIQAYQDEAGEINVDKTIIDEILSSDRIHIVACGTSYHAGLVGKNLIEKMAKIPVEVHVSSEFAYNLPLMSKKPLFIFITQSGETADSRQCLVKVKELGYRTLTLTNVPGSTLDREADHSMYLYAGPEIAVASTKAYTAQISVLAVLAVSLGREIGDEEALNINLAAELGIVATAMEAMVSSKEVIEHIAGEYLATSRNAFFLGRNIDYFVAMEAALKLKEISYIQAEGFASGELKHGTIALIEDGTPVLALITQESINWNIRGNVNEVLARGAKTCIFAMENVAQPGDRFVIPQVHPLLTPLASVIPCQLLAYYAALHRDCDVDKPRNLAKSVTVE
The test is described as follows: two-hybrid; BACTH bacterial two-hybrid in BTH101 E. coli; each protein as N- and C-terminal fusion to T18 and T25; blue-white assay on X-Gal plates (24 h at 30°C, four replicates) and quantitative β-galactosidase assays (triplicate, normalised to the Zip positive control).

On to L. monocytogenes GlmR, for which the binding entry is reported as “no binding”.
